Results published in the supplement of paper PMC10849652.
This is one part of the list.

Chains of the proteins cited; added tags and fusions are not shown. Lines headed by an entry give the natural chain unless they say otherwise; changes in a name come on top.
UniProt O95630, whole entry, looked up: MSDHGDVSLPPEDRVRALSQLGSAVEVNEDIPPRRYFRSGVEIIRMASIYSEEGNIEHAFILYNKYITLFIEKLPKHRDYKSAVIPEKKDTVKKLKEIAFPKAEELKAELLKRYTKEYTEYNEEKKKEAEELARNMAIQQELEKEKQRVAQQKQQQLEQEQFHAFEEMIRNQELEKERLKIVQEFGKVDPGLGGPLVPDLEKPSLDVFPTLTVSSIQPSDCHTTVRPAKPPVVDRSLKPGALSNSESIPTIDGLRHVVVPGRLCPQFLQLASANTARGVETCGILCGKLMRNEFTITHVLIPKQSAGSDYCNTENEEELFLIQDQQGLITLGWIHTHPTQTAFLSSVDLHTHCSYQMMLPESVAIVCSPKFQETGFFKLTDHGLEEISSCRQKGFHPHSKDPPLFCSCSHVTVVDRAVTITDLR
UniProt Q8IYB3: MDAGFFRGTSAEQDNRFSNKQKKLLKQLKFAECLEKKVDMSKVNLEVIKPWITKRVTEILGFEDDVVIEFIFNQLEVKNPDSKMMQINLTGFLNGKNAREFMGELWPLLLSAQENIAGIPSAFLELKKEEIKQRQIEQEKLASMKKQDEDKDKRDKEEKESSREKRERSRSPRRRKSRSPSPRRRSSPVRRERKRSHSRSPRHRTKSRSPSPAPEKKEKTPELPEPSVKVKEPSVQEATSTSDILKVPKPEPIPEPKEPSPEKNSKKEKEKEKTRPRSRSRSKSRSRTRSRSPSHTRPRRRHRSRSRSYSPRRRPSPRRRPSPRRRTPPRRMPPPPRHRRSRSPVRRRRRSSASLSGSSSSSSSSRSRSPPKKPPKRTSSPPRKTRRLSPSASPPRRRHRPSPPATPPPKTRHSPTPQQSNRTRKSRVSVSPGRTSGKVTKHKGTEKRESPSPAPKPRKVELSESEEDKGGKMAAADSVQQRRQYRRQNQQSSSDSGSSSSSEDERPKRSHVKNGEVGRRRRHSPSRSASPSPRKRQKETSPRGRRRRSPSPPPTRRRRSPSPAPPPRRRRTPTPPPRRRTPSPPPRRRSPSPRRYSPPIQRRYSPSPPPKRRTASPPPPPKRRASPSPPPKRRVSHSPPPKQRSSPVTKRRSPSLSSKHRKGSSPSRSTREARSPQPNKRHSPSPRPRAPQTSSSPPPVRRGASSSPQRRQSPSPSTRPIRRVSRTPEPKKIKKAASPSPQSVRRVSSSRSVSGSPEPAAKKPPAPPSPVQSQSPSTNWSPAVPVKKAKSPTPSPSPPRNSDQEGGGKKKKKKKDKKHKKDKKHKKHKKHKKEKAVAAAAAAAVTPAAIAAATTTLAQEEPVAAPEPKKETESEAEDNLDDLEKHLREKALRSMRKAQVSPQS
UniProt Q15831: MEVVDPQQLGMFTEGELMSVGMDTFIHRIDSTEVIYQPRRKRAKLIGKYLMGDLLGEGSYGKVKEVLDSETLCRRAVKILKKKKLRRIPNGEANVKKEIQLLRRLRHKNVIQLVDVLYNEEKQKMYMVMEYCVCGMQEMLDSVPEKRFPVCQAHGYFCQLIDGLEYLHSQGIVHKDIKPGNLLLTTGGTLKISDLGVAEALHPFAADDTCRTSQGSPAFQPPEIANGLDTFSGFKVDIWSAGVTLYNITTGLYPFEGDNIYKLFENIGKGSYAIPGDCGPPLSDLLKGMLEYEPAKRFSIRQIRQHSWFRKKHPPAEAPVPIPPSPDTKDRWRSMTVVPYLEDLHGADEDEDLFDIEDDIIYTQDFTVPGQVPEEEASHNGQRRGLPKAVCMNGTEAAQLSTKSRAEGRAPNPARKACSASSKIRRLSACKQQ
UniProt P49458: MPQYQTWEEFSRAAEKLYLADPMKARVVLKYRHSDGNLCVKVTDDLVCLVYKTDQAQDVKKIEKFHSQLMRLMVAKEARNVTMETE
UniProt O15270: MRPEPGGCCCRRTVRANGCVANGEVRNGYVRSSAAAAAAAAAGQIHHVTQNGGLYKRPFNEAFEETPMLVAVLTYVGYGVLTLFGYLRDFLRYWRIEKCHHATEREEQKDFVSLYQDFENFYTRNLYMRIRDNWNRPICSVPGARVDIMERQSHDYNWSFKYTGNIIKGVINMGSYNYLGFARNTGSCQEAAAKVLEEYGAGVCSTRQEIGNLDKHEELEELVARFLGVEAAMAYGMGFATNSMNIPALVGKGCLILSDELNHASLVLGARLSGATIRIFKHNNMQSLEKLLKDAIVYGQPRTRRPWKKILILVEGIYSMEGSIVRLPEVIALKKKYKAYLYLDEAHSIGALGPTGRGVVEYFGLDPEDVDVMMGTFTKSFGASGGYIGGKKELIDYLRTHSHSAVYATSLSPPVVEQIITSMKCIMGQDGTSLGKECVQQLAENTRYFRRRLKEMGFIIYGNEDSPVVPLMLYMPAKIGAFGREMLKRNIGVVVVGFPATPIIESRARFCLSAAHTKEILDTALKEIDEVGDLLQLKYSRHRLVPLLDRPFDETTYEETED
UniProt Q96SB4, whole entry, looked up: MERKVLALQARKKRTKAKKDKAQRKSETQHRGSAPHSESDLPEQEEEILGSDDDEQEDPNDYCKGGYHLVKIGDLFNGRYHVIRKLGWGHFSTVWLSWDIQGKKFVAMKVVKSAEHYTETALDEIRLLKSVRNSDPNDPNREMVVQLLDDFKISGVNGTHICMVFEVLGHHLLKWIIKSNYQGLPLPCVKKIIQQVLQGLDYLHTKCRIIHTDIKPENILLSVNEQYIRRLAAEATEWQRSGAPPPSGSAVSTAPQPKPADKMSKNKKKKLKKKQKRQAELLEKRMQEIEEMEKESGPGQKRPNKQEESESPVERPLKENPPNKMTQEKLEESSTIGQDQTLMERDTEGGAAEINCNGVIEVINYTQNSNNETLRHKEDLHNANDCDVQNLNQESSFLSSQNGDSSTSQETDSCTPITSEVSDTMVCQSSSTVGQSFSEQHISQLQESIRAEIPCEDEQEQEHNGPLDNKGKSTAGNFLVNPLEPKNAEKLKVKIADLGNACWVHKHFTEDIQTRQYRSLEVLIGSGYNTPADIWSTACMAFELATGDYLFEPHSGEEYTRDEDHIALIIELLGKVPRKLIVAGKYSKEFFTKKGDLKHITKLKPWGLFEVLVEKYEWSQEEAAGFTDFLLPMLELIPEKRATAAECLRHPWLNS
UniProt Q9UQ90: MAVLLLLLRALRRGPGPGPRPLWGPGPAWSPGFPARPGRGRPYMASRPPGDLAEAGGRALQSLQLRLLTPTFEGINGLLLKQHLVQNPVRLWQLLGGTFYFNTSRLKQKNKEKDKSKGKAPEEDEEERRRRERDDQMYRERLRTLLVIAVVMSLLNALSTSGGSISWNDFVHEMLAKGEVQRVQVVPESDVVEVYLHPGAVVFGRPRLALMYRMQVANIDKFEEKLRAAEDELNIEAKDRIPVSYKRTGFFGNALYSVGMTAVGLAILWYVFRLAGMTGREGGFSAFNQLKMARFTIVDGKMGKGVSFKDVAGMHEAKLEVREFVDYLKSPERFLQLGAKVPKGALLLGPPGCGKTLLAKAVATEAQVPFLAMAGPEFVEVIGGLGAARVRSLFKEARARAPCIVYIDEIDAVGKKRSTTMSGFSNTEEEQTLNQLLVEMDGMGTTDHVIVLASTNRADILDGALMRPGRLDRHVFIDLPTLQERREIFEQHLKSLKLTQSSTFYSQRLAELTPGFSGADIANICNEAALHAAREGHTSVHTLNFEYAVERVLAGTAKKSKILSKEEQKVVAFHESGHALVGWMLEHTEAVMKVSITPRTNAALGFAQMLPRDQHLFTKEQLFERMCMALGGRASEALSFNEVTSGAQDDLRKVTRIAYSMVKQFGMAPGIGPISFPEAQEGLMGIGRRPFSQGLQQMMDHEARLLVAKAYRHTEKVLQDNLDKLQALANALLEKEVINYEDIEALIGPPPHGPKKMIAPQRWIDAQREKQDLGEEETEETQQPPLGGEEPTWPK
UniProt P09132: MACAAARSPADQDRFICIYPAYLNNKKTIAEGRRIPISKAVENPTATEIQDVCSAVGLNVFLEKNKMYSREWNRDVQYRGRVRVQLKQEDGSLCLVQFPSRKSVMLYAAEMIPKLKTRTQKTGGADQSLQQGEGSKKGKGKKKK
UniProt Q9C004: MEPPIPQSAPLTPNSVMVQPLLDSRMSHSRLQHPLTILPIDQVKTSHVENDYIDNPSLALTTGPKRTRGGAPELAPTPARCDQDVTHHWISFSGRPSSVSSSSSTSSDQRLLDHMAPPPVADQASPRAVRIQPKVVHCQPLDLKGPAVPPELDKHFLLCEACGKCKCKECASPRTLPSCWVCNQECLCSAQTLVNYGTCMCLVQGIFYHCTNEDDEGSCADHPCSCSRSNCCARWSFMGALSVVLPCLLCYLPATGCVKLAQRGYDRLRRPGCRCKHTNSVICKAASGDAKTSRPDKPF
UniProt P37108: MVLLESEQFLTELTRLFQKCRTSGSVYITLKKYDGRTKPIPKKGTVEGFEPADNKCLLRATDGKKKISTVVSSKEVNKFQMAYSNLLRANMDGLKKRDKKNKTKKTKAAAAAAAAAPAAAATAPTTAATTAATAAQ
UniProt Q13243: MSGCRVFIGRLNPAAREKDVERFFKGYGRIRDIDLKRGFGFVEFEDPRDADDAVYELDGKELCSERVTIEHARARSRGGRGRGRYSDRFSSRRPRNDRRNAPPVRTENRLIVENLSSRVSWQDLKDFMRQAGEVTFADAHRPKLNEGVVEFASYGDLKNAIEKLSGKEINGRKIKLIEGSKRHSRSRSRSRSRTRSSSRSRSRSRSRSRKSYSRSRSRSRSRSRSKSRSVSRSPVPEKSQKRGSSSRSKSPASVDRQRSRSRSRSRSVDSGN
UniProt P31948, whole entry, looked up: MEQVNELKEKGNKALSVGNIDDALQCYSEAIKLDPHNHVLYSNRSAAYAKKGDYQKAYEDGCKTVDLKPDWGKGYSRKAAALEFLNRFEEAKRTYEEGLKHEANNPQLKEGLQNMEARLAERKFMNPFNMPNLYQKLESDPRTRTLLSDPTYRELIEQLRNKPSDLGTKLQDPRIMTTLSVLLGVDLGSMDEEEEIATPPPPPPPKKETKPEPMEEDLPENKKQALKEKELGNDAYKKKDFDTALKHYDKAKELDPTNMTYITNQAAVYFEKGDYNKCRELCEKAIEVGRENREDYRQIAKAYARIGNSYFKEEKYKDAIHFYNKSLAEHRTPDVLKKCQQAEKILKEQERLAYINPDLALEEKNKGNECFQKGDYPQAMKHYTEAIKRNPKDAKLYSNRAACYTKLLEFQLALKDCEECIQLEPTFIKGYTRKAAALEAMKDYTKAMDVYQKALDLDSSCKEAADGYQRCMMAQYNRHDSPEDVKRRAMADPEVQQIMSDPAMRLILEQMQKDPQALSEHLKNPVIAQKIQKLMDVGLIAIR
UniProt Q92783: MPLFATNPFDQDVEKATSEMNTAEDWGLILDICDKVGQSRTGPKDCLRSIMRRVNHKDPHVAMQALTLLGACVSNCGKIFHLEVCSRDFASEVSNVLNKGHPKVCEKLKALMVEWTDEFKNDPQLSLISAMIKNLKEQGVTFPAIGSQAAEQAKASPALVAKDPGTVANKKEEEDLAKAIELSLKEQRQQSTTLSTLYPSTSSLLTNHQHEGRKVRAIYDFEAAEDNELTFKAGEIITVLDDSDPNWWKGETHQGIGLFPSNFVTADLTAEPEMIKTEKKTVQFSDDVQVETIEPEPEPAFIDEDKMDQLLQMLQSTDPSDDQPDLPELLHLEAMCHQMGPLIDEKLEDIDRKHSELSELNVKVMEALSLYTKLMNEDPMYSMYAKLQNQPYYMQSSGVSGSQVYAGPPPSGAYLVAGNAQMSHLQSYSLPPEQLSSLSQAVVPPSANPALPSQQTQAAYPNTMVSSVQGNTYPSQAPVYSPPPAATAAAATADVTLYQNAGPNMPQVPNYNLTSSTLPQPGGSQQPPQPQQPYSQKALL
UniProt P61009: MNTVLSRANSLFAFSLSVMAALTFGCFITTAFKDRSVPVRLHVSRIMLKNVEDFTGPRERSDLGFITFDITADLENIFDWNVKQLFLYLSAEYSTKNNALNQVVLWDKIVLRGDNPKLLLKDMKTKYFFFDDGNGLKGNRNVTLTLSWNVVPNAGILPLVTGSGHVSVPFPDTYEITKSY
UniProt Q9NRC1: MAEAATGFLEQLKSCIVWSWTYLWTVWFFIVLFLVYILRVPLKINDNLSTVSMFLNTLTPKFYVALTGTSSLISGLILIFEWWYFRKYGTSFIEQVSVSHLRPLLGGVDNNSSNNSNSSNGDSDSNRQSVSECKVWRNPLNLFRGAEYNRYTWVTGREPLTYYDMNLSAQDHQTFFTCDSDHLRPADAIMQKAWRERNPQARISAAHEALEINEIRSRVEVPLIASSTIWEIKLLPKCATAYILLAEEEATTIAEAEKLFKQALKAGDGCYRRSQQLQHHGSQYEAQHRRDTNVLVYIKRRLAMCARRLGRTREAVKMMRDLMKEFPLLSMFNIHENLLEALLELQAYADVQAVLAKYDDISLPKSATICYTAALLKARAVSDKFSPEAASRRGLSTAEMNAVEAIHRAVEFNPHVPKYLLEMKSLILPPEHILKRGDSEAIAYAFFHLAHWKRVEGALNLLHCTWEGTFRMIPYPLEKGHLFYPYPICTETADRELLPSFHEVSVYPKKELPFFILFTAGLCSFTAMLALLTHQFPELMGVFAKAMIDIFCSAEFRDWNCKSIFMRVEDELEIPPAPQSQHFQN

compound: Cc1ccc(C(=O)N(CCCN)[C@@H](c2nc3cc(Cl)ccc3c(=O)n2Cc2ccccc2)C(C)C)cc1 [ispinesib]; experiment: log2 fold change, soluble protein after heating vs DMSO (PISA); higher = thermal stabilisation; K562 cells, 10 uM, 30 min; active = over 0.2 and 3.5 SD of the protein, either way, in both replicates (recomputed)
Method in brief: (§1)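 K562 cells at 2×10^6 cells/mL were treated with 10 μM compound for 30 min. Aliquots were heated for 3 min across 48°C-58°C, pooled, and extracted in PBS with 0.5% NP-40 at 4°C; soluble protein was the supernatant after 21,000xg for 90 min. Soluble protein was quantified by TMTpro 16plex LC-MS/MS with channel sums equalised, and reported as log2 fold change in thermal stability against DMSO controls, with values from duplicates.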

Target | log2 fold change
SSBP1 (UniProt Q04837) | inactive: -0.113
STAMBP (UniProt O95630) | inactive: -0.008
SPC25 (UniProt Q9HBM1) | inactive: -0.01
SRRM1 (UniProt Q8IYB3) | inactive: -0.21
SSR1 (UniProt P43307) | inactive: -0.002
SRRT (UniProt Q9BXP5) | inactive: -0.125
STK11 (UniProt Q15831) | inactive: 0.072
SPTA1 (UniProt P02549) | inactive: -0.255
SPTAN1 isoform 2 (UniProt Q13813) | inactive: 0.051
SRP9 (UniProt P49458) | inactive: -0.188
SPN (UniProt P16150) | inactive: 0.074
SPTLC2 (UniProt O15270) | inactive: -0.045
SRGN (UniProt P10124) | inactive: 0.11
SRPK1 (UniProt Q96SB4) | inactive: -0.204
SPG7 (UniProt Q9UQ90) | inactive: -0.093
SRP19 (UniProt P09132) | inactive: -0.097
SPRY4 (UniProt Q9C004) | inactive: -0.14
SPC24 (UniProt Q8NBT2) | inactive: 0.113
STAU1 (UniProt O95793) | inactive: -0.298

Target | log2 fold change
SRP14 (UniProt P37108) | inactive: -0.164
SRSF5 (UniProt Q13243) | inactive: -0.123
SRM (UniProt P19623) | inactive: -0.016
STIP1 isoform 2 (UniProt P31948) | inactive: 0.061
SPATA5 (UniProt Q8NB90) | inactive: 0.03
STAG2 (UniProt Q8N3U4) | inactive: 0.066
SQLE (UniProt Q14534) | inactive: 0.061
SPARC (UniProt P09486) | inactive: 0.008
SPTB isoform 2 (UniProt P11277) | inactive: -0.283
STAM (UniProt Q92783) | inactive: 0.095
SSNA1 (UniProt O43805) | inactive: 0.108
SPNS1 (UniProt Q9H2V7) | inactive: -0.286
SPCS3 (UniProt P61009) | inactive: -0.021
SPRYD7 (UniProt Q5W111) | inactive: 0.043
ST7 (UniProt Q9NRC1) | inactive: -0.056
SPTBN2 (UniProt O15020) | inactive: 0.001
SPIN1 (UniProt Q9Y657) | inactive: 0.03
SPCS1, A0A5F9YFS9 | inactive: -0.007
ST13 (UniProt P50502) | inactive: -0.013

compound: Cc1ccc(NC(=O)c2ccc(CN3CC[C@H](N(C)C)C3)c(C(F)(F)F)c2)cc1Nc1nccc(-c2cncnc2)n1 [bafetinib]; experiment: as above
Method in brief: as §1

Target | log2 fold change
SSBP1 (UniProt Q04837) | inactive: 0.01
STAMBP (UniProt O95630) | inactive: -0.076
SPC25 (UniProt Q9HBM1) | inactive: -0.011
SRRM1 (UniProt Q8IYB3) | inactive: 0.097
SSR1 (UniProt P43307) | inactive: -0.077
SRRT (UniProt Q9BXP5) | inactive: 0.078
STK11 (UniProt Q15831) | inactive: -0.036
SPTA1 (UniProt P02549) | inactive: 0.042
SPTAN1 isoform 2 (UniProt Q13813) | inactive: 0.066
SRP9 (UniProt P49458) | inactive: 0.147
SPN (UniProt P16150) | inactive: -0.051
SPTLC2 (UniProt O15270) | inactive: -0.058
SRGN (UniProt P10124) | inactive: 0.099
SRPK1 (UniProt Q96SB4) | inactive: 0.24
SPG7 (UniProt Q9UQ90) | inactive: -0.055
SRP19 (UniProt P09132) | inactive: -0.059
SPRY4 (UniProt Q9C004) | inactive: 0.054
SPC24 (UniProt Q8NBT2) | inactive: -0.02
STAU1 (UniProt O95793) | inactive: 0.241

Target | log2 fold change
SRP14 (UniProt P37108) | inactive: 0.207
SRSF5 (UniProt Q13243) | inactive: 0.189
SRM (UniProt P19623) | inactive: 0.017
STIP1 isoform 2 (UniProt P31948) | inactive: -0.023
SPATA5 (UniProt Q8NB90) | inactive: -0.011
STAG2 (UniProt Q8N3U4) | inactive: -0.035
SQLE (UniProt Q14534) | inactive: 0.074
SPARC (UniProt P09486) | inactive: -0.17
SPTB isoform 2 (UniProt P11277) | inactive: -0.596
STAM (UniProt Q92783) | inactive: 0.021
SSNA1 (UniProt O43805) | inactive: -0.013
SPNS1 (UniProt Q9H2V7) | inactive: -0.053
SPCS3 (UniProt P61009) | inactive: -0.103
SPRYD7 (UniProt Q5W111) | inactive: 0.017
ST7 (UniProt Q9NRC1) | inactive: 0.057
SPTBN2 (UniProt O15020) | inactive: 0.042
SPIN1 (UniProt Q9Y657) | inactive: -0.075
SPCS1, A0A5F9YFS9 | inactive: -0.091
ST13 (UniProt P50502) | inactive: -0.015
